For experiment [1], the target named is T1, Pst2 with C-terminal 3× Flag-tag (S. pombe, UniProt O13919 1-1075).
T1 construct: Pst2, Sin3 homolog of S. pombe, organising subunit of the SIN3S complex; all five domains (PAH1/2/3, HID, HCR) are resolved; also called Pst2-Flag; Sin3 isoform Pst2; source: endogenous locus tagged, S. pombe; purified (ANTI-FLAG M2 resin, glycerol gradient); not shown: 3× Flag, C-terminal, kept
T1 sequence (looked up): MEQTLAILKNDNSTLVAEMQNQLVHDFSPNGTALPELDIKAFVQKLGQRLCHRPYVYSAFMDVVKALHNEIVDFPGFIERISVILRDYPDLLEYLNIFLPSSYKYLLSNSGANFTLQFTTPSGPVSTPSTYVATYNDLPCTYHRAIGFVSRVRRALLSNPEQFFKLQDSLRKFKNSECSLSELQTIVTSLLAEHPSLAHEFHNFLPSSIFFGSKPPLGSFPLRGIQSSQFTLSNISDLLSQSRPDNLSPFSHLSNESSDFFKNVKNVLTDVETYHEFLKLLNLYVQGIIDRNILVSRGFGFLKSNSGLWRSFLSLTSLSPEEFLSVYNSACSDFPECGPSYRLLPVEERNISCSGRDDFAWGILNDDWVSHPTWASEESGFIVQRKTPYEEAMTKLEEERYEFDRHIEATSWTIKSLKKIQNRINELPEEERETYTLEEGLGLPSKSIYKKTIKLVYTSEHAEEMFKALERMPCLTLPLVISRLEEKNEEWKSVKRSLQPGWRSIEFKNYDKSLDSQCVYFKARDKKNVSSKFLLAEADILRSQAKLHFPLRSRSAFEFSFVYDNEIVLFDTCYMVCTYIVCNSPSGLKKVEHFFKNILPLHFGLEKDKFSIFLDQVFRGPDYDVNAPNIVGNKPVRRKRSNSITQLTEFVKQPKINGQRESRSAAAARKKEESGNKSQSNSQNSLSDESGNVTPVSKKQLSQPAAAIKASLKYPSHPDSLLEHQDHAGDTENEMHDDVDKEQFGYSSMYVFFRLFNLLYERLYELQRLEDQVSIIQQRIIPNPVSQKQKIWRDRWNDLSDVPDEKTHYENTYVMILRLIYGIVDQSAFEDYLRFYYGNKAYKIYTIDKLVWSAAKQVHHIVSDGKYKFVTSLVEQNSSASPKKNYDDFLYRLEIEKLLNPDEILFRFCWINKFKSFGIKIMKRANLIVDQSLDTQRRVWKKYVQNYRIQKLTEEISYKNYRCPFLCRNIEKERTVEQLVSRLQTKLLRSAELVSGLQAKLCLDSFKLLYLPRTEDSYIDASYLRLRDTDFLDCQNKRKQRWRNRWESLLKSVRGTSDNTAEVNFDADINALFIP
The experiment in a line: affinity purification with mass spectrometry; Pst2-3×Flag as bait from S. pombe lysate (350 mM NaCl) on ANTI-FLAG M2 resin, FLAG peptide elution, glycerol gradient; SDS-PAGE bands analysed by LC-MS/MS.

For experiment [2], the target named is T2, Pst3 with C-terminal 3× Flag-tag (S. pombe, UniProt O74755 1-1154).
T2 construct: Pst3, Sin3 homolog of S. pombe, subunit of the SIN3L complex; PAH3, HID and HCR are resolved in the model; Endogenous protein; also called Pst3-Flag; Sin3 isoform Pst3; source: endogenous locus tagged, S. pombe; purified (ANTI-FLAG M2 resin, glycerol gradient); not shown: 3× Flag, C-terminal, kept
T2 sequence (looked up): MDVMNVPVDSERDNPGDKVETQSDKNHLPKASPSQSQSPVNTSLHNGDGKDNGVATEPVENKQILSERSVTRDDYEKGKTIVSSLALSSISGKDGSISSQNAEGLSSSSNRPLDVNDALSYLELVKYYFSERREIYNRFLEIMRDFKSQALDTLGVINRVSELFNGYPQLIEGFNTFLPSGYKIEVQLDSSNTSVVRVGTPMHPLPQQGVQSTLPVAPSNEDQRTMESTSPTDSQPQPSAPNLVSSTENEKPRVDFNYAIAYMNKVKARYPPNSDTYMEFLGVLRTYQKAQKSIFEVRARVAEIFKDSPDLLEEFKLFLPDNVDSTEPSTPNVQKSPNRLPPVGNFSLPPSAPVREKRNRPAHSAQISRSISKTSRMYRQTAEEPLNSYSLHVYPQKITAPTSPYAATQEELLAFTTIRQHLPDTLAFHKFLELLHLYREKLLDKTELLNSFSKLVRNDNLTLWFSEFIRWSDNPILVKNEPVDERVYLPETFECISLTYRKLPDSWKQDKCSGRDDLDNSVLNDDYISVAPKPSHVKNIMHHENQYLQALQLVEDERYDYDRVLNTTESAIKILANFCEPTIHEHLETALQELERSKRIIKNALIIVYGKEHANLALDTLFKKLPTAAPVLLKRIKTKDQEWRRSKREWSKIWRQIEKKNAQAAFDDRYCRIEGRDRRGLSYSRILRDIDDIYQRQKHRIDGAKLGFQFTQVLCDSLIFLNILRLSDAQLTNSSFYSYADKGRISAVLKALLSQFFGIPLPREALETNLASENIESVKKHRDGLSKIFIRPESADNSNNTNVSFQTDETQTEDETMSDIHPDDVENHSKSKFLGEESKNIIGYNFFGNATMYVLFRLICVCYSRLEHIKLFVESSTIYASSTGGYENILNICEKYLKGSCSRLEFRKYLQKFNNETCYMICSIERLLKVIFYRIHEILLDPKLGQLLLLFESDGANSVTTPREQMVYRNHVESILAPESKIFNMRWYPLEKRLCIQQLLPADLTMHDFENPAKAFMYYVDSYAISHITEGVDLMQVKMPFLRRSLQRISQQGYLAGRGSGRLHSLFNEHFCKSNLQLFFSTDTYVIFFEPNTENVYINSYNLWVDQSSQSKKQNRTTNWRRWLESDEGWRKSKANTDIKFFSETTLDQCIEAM
Kind of experiment: affinity purification with mass spectrometry; Pst3-3×Flag as bait from S. pombe lysate (350 mM NaCl) on ANTI-FLAG M2 resin, FLAG peptide elution, glycerol gradient; SDS-PAGE bands analysed by LC-MS/MS.

No constants are given. Whether binding was seen depends on the method and setting. Binding seen in cells or lysates may run through a third protein. A yes stands for co-enrichment or nearness to the bait. Other partners may have been found. For part of these data: A no says only that the protein was not detected with the bait. Tags and fused reporters may be left off the sequences shown.

B1: cell division cycle-related protein Res2 (protein, UniProt P41412 1-657)
chain: MAPRSSAVHVAVYSGVEVYECFIKGVSVMRRRRDSWLNATQILKVADFDKPQRTRVLERQVQIGAHEKVQGGYGKYQGTWVPFQRGVDLATKYKVDGIMSPILSLDIDEGKAIAPKKKQTKQKKPSVRGRRGRKPSSLSSSTLHSVNEKQPNSSISPTIESSMNKVNLPGAEEQVSATPLPASPNALLSPNDNTIKPVEELGMLEAPLDKYEESLLDFFLHPEEGRIPSFLYSPPPDFQVNSVIDDDGHTSLHWACSMGHIEMIKLLLRANADIGVCNRLSQTPLMRSVIFTNNYDCQTFGQVLELLQSTIYAVDTNGQSIFHHIVQSTSTPSKVAAAKYYLDCILEKLISIQPFENVVRLVNLQDSNGDTSLLIAARNGAMDCVNSLLSYNANPSIPNRQRRTASEYLLEADKKPHSLLQSNSNASHSAFSFSGISPAIISPSCSSHAFVKAIPSISSKFSQLAEEYESQLREKEEDLIRANRLKQDTLNEISRTYQELTFLQKNNPTYSQSMENLIREAQETYQQLSKRLLIWLEARQIFDLERSLKPHTSLSISFPSDFLKKEDGLSLNNDFKKPACNNVTNSDEYEQLINKLTSLQASRKKDTLYIRKLYEELGIDDTVNSYRRLIAMSCGINPEDLSLEILDAVEEALTREK
On to B1, for which the binding result in experiment [1] is “no binding”; in experiment [2], “binds”.

B2: cell division cycle-related protein Res1 (protein, UniProt P33520 1-637)
chain: MYNDQIHKITYSGVEVFEYTINGFPLMKRCHDNWLNATQILKIAELDKPRRTRILEKFAQKGLHEKIQGGCGKYQGTWVPSERAVELAHEYNVFDLIQPLIEYSGSAFMPMSTFTPQSNRKPTEAYRRNSPVKKSFSRPSHSLLYPYTSSNNMTSTSRMSGIHDALSLQSDFTRSPDMPSDSFTGSLHDIKASPFSSNNYAQSLLDYFLLPNTTQPPDFVYDRPSDWDVNAGIDEDGHTALHWAAAMGNLEMMHALLQAGANVVAVNYLQQTSLMRCVMFTMNYDLQTFEVVSELLQSAICMNDSFGQTVFHHIALLASSKSKMEAARYYMDILLQNLTATQSVDVAAQIINLQDDHGDTALLICARNGAKKCARLLLSFYASSSIPNNQGQYPTDFLSSKDMSFPENDDSPLNSKIEDNLIDNLKYPQSLDDHLSSKKPISYFSNKLTHQTLPNVFTQLSELSKCHEASLAEKQLTYNLAMEALEQTVRETETCQRLWNERTNNDENYLVNQREDLIHQCKKFLHTLKTARYYLETVQLHQLKKYVTYFSQIWSTDELADISETKNLVGHDTKTNRSSLSSKHEVDLFTAENEAAREKLVEQLCSLQAQRKQKINEILNLLSMGMYNTINTDQSGS
As to B2, the binding result is “no binding” in experiment [1] and “binds” in experiment [2].

B3: Eaf3 (protein, UniProt O13953 1-337)
chain: MAVSYKVNERVLCFHGPLLYEAKIVDTEMKGDVTTYLIHYKGWKNSWDEWVEQDRILQWTEENLKTQKELKNAAISTRQKPTSKKSASSTSKHDSTGVKTSGKRSRESSTVTVDGDSHELPSRIKTQKSESPIPQQVKRDGTTDAKNEETTKPENNEKDDFEEEPPLPKHKISVPDVLKLWLVDDWENITKNQQLIAIPRNPTVRAAIAAFRESKISHLNNEIDVDVFEQAMAGLVIYFNKCLGNMLLYRFERQQYLEIRQQYPDTEMCDLYGVEHLIRLFVSLPELIDRTNMDSQSIECLLNYIEEFLKYLVLHKDEYFIKEYQNAPPNYRSLVGV
On to B3, for which the binding result in experiment [1] was “binds”.

B4: start control protein Cdc10 (protein, UniProt P01129 1-767)
chain: MASANFIRQFELGNDSFSYQKRPEDEPSQPLSNRNINKLNDSSTLKDSSSRIFINSQVLRDGRPVELYAVECSGMKYMELSCGDNVALRRCPDSYFNISQILRLAGTSSSENAKELDDIIESGDYENVDSKHPQIDGVWVPYDRAISIAKRYGVYEILQPLISFNLDLFPKFSKQQQIESSSISKNLNTSSFNTRSPLRNHNFSNPSKSSKNGVHTINNMQSSPSPSSSFLLPLTQIDSQNVKRSNNYLSTSPPILEQRLKRHRIDVSDEDLHPSSQLNDNEASSLFPDTPRLNHSLSFVSLVSSLPPLDQNIMQDYHTSKDILTSIFLDVNFADSSALEAKLSDSLDLDVPIDELGHAALHWAAAVAKMPLLQALIHKGANPLRGNLTGETALMRSVLVTNHLNQNSFGDLLDLLYASLPCTDRAGRTVVHHICLTAGIKGRGSASRYYLETLLNWAKKHASGNNGYMLKDFINYLNHQDKNGDTALNIAARIGNKNIVEVLMQAGASAYIPNRAGLSVANFGIFVENALKQPEDSKQTKVSLMSENLSSKEKTAVPPRQKSRDIIASVTDVISSLDKDFQDEMAAKQSMIDSAYTQLRESTKKLSDLREQLHVSETQRTLFLELRQRCKNLMTSIEEQKSELSNLYESFDPNGIHDSLSLDADAPFTVNENNNKNLSIAELKFQVAAYERNEARLNELANKLWQRNSNIKSKCRRVVSLCTGVDESRVDSLLESLLQAVESDGQQGEVDMGRVAGFLRVVKEHQA
Consider B4, for which the binding result in experiment [1] was “no binding”; in experiment [2], “binds”.

B5: iron-sensing transcriptional repressor Fep1 (protein, UniProt Q10134 1-564)
chain: MAAKPAPFGQSCSNCHKTTTSLWRRGPDNSLLCNACGLYQKHRKHARPVKSEDLKDISPLIQQVCKNGTCAGDGFCNGTGGSASCTGCPALNNRIRSLNASKSQSGRKSLSPNPSSVPSSTETKASPTPLESKPQIVSDTTTETSNGTSRRRSSHNQHEDSSPPHEPSVTFCQNCATTNTPLWRRDESGNPICNACGLYYKIHGVHRPVTMKKAIIKRRKRLVFNGNANESQHNLKRMSSGDSGSSVKQQSTRDGPFSKSFPNGNGHASGNSGEGLAEHGMNTGVLPPASTFPSYNSNFTGFLPSSFNPSPLMTLSRLAAGEPDNNGKVYYSYGPTQEQSILPLPENKHEGLPPYQNEYVPNGIRANQVVYPGQLVAVGNDSSKQLSESTTSNTDNNGVATANQSNPLGMKFHLPPILPVGESVCLPPRTSAKPRIAEGIASLLNPEEPPSNSDKQPSMSNGPKSEVSPSQSQQAPLIQSSTSPVSLQFPPEVQGSNVDKRNYALNVLSQLRSQHDLMIQELHNLNQHIQQIDEWLRSSDNENMASEHIKSSTPAVVASGALQT
As to B5, the binding entry in experiment [1] was “no binding”; in experiment [2] it was “binds”.

(Values after PMC10115800, “Two assembly modes for SIN3 histone deacetylase complexes” (Cell Discovery, 2023).)
